Taken from: PubChem BioAssay AID652259 (Drosophila RNAi Screening Center, 2013)
Purpose: 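Knock-downs that push a Wingless-driven reporter up or down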 (primary screen). Cell system: Drosophila clone 8 imaginal disc epithelial cells. Knock-down reagent: long dsRNA against Drosophila genes. Challenge: pathway stimulated by co-transfected Wingless expression plasmid. Measurement: 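Dual luciferase reads per well after Wingless plasmid stimulation: reporter firefly light and Renilla control light; activity is firefly divided by Renilla, a ratio not deposited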. Direction: firefly reporter light: higher = more Wg reporter light, before normalisation; Renilla control light: higher = more transfected or surviving cells. Rule for the call: 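a knock-down is a candidate when at least two out of four statistical tests show it departing from its plate mean; one test alone signals a weak candidate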. Calls: active = candidate regulator (raises or lowers reporter); inactive = not a candidate.
The deposit covers about 22,000 reagents; below is a random part of those with a known target gene and a result. Of all reagents, 233 (1.1%) are marked active. 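Light values are raw, unnormalised plate reads; the ratio scores behind the reporter calls were not deposited.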 Not given: the amount of reagent, the time to read-out, the dose of the treatment.

CG32816 [DRSC17337] | firefly reporter light, replicate 1: 3699; Renilla control light, replicate 1: 1453; Outcome: inactive
CG6665 [DRSC07006] | firefly reporter light, replicate 1: 15659; Renilla control light, replicate 1: 4293; Outcome: inactive
trem [DRSC15575] | firefly reporter light, replicate 1: 16870; Renilla control light, replicate 1: 4312; Outcome: inactive
Dhfr [DRSC16646] | firefly reporter light, replicate 1: 19570; Renilla control light, replicate 1: 5920; Outcome: inactive
CG10077 [DRSC09691] | firefly reporter light, replicate 1: 4776; Renilla control light, replicate 1: 1400; Outcome: inactive
Incenp [DRSC06116] | firefly reporter light, replicate 1: 17895; Renilla control light, replicate 1: 6528; Outcome: inactive
Incenp [DRSC21950] | firefly reporter light, replicate 1: 4.71e5; firefly reporter light, replicate 2: 5.09e5; Renilla control light, replicate 1: 1.70e5; Renilla control light, replicate 2: 1.81e5; Outcome: inactive
Uck [DRSC13661] | firefly reporter light, replicate 1: 2625; Renilla control light, replicate 1: 1415; Outcome: inactive
Uck [DRSC16028] | firefly reporter light, replicate 1: 16272; Renilla control light, replicate 1: 15958; Outcome: inactive
CG9143 [DRSC07338] | firefly reporter light, replicate 1: 9861; Renilla control light, replicate 1: 3179; Outcome: inactive
vilya [DRSC18588] | firefly reporter light, replicate 1: 11584; Renilla control light, replicate 1: 10641; Outcome: inactive
Spn28Dc [DRSC03029] | firefly reporter light, replicate 1: 2321; firefly reporter light, replicate 2: 5097; Renilla control light, replicate 1: 652; Renilla control light, replicate 2: 2778; Outcome: inactive
CG5001 [DRSC00673] | firefly reporter light, replicate 1: 3440; firefly reporter light, replicate 2: 5250; Renilla control light, replicate 1: 1634; Renilla control light, replicate 2: 1957; Outcome: inactive
CG8509 [DRSC20109] | firefly reporter light, replicate 1: 1360; firefly reporter light, replicate 2: 3449; Renilla control light, replicate 1: 856; Renilla control light, replicate 2: 1596; Outcome: inactive
CG12316 [DRSC09879] | firefly reporter light, replicate 1: 2521; Renilla control light, replicate 1: 1560; Outcome: inactive
JTBR [DRSC08667] | firefly reporter light, replicate 1: 4586; Renilla control light, replicate 1: 2261; Outcome: inactive
CG6923 [DRSC16136] | firefly reporter light, replicate 1: 5386; Renilla control light, replicate 1: 2162; Outcome: inactive
Spg7 [DRSC18469] | firefly reporter light, replicate 1: 13395; Renilla control light, replicate 1: 9771; Outcome: inactive
CG2865 [DRSC18527] | firefly reporter light, replicate 1: 2485; firefly reporter light, replicate 2: 5744; Renilla control light, replicate 1: 1344; Renilla control light, replicate 2: 3281; Outcome: inactive
CG2865 [DRSC18528] | reporter change call, replicate 1: Wg reporter activity raised; firefly reporter light, replicate 1: 5056; Renilla control light, replicate 1: 466; Outcome: active
CG12099 [DRSC08253] | firefly reporter light, replicate 1: 6781; Renilla control light, replicate 1: 2736; Outcome: inactive
alphaTub85E [DRSC16899] | firefly reporter light, replicate 1: 8037; Renilla control light, replicate 1: 1760; Outcome: inactive
CG32440 [DRSC11480] | firefly reporter light, replicate 1: 4198; Renilla control light, replicate 1: 1722; Outcome: inactive
Or45b [DRSC07488] | firefly reporter light, replicate 1: 2433; firefly reporter light, replicate 2: 12433; Renilla control light, replicate 1: 663; Renilla control light, replicate 2: 3584; Outcome: inactive
CG14537 [DRSC02395] | firefly reporter light, replicate 1: 3178; firefly reporter light, replicate 2: 7168; Renilla control light, replicate 1: 912; Renilla control light, replicate 2: 3653; Outcome: inactive
